PubChem BioAssay AID504804, Drosophila RNAi Screening Center – 2011
Assay: 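Knock-downs shielding fly cells from apoptosis caused by DNA damage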 (primary screen). Cell system: Drosophila Kc cells. Knock-down reagent: long dsRNA against Drosophila genes, 0.5 µg dsRNA per well. Time to read-out: 96 h (48 h knock-down, then 48 h drug). Challenge: doxorubicin 5 µg/ml for 48 h, added 48 h after dsRNA. Detection: 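Viability measured as cellular ATP by luminescence after 48 h knock-down then 48 h doxorubicin at 5 µg/ml; unnormalised plate counts for each replicate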. Direction: raw ATP luminescence: higher = more viable cells, protection from doxorubicin. Rule for the call: 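z-score of 2 or more over plate mean in both duplicates, retained only when retests and separate dsRNAs confirm the protection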.
In all, the deposit lists about 19,000 reagents; this is a random part of those that have a named target and a result. Of all reagents, 47 (0.25%) were called active. 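Signals are raw, not normalised; exact z-scores behind calls not deposited; actives needed confirmation, so some wells reaching 2 SD are inactive.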 A number with no mark means an inactive call. The numbers tell different reagents against one gene apart. A plus sign joins genes that one reagent is predicted to hit. Reagent sequences are not shown.

gene knocked down	reagent no.	SD above plate mean	raw ATP luminescence, replicate 1	raw ATP luminescence, replicate 2
CG42493	1		71647	95150
CG42327	1		43547	54383
CG42327	2		57737	51270
Fhos (Formin homology 2 domain containing)	1		1.72e5	2.09e5
Fhos (Formin homology 2 domain containing)	2		43400	34160
Fhos (Formin homology 2 domain containing)	3		40583	42997
Fhos (Formin homology 2 domain containing)	4		78667	79783
gsb (gooseberry)	1		39880	52227
CG10927	1		64907	58190
pon (partner of numb)	1		50970	49020
fd96Ca (forkhead domain 96Ca)	1		53370	61980
l(3)L1231 (lethal (3) L1231)	1		1.01e5	46317
Cht6 (Chitinase 6)	1		3.81e5	3.10e5
Cht6 (Chitinase 6)	2		1.45e5	1.59e5
Cht6 (Chitinase 6)	3		4.10e5	3.85e5
cindr (CIN85 and CD2AP related)	1		44310	31920
Oatp58Da (Organic anion transporting polypeptide 58Da)	1		35863	36723
MFS12 (Major Facilitator Superfamily Transporter 12)	1		56373	67300
CG4074 + CG4186	1		77757	69073
Spn42Da (Serpin 42Da)	1		37467	1.08e5
CG7903	1		62330	54050
CG3339	1		2.20e5	1.94e5
CG3339	2		53710	40310
CG42724	1		52480	29623
CG1233	1		64903	66707
pes (peste)	1		60603	77923
twz (tiwaz)	1		46340	62257
CG5958	1		20523	30217
Jhbp2 (Juvenile hormone binding protein 2)	1		53917	50130
Zwilch	1		47460	45780
CG18745	1		54653	48460
Ino80 (INO80 complex subunit)	1		72800	81100
Ino80 (INO80 complex subunit)	2		53900	73770
Ino80 (INO80 complex subunit)	3		62080	62580
Coq5 (Coenzyme Q5)	1		4.13e5	3.65e5
CG13101	1		74550	48590
CG34136	1		58427	52317
CG12164	1		65433	66803
tim (timeless)	1		96717	56700
CG17764	1		24680	24390
CG32021 (retired record)	1	2 to 3 SD above plate mean	75710	92500
CG13795	1		43580	64653
CG1986	1		2.90e5	2.82e5
Gs1 (Glutamine synthetase 1)	1		1.04e5	88433
CG7706	1		46407	60140
EndoU (Endoribonuclease U-specific)	1		52440	56430
CG42402	1		3.49e5	3.28e5
l(2)k10201 (lethal (2) k10201)	1		42437	83720
l(2)k10201 (lethal (2) k10201)	2		39597	72417
Spec2 (retired record)	1		66687	66047
CG14160	1		55113	59537
Marcal1	1		27763	37983
CG12609	1		2.12e5	2.06e5
mAcon2 (Mitochondrial aconitase 2)	1		24630	70443
CG34024 (retired record)	1		1.80e5	2.31e5
Mbs (Myosin binding subunit)	1		89287	84770
Mbs (Myosin binding subunit)	2		20853	15123
Mbs (Myosin binding subunit)	3		35463	42973
CG33500	1		1.42e5	1.39e5
CG15177	1		67483	60723
Atg8b (Autophagy-related 8b)	1		44730	41720
ppk15 (pickpocket 15)	1		52030	56710
CG12237	1		2.16e5	1.98e5
nub (nubbin)	1		2.90e5	2.28e5
nub (nubbin)	2		64747	74720
nub (nubbin)	3		55877	57637
nub (nubbin)	4		62557	73873
Csk (C-terminal Src kinase)	1		1.70e5	1.44e5
Csk (C-terminal Src kinase)	2		53413	21840
Ak2 (Adenylate kinase 2)	1		37403	47377
dysf (dysfusion)	1		61940	57730
dysf (dysfusion)	2		65310	61220
dysf (dysfusion)	3		81020	57050
dysf (dysfusion)	4		16150	16230
CG17834	1		1.33e5	93073
spi (spitz)	1		64950	55450
CG13082	1		46080	48180
Eig71Ed (Ecdysone-induced gene 71Ed)	1		43137	38987
CadN (Cadherin-N)	1		58523	68003
cta (concertina)	1		67220	69683
CG10764	1		63140	61877
CG7236	1		27720	25640
Bx (Beadex)	1		2.16e5	1.63e5
Pabp2	1		24060	41190
CG8960	1		60343	84833
Brms1 (BRMS1 transcriptional repressor)	1		3.94e5	2.91e5
CG32198	1		60257	70653
tsh (teashirt)	1		52770	60207
Ciao1	1		60310	70167
Drsl4 (Drosomycin-like 4)	1		1.35e5	1.23e5
Jupiter	1		52650	23527
Jupiter	2		58250	56053
Jupiter	3		57633	53093
mtrm (matrimony)	1		27607	23483
Set1 (SET domain containing 1)	1		2.21e5	2.02e5
Set1 (SET domain containing 1)	2		2.42e5	1.99e5
CG10343	1		27533	32513
CG42674	1		1.79e5	1.39e5
CG42674	2		97500	69800
CG42674	3		76793	54777
Cbl (Cbl proto-oncogene)	1		88373	96967
Cbl (Cbl proto-oncogene)	2		92120	86043
Grx3 (Glutaredoxin 3)	1		1.03e5	61317
CG7886	1		68670	67040
CG10898	1		57417	28267
Cenp-C (Centromeric protein-C)	1		53020	55083
CG32053	1		35663	41897

11 entries from above in another layout:
gene knocked down | reagent no. | SD above plate mean | raw ATP luminescence, replicate 1 | raw ATP luminescence, replicate 2
CG13082 | 1 | – | 46080 | 48180
Eig71Ed (Ecdysone-induced gene 71Ed) | 1 | – | 43137 | 38987
CadN (Cadherin-N) | 1 | – | 58523 | 68003
cta (concertina) | 1 | – | 67220 | 69683
CG10764 | 1 | – | 63140 | 61877
CG7236 | 1 | – | 27720 | 25640
Bx (Beadex) | 1 | – | 2.16e5 | 1.63e5
Pabp2 | 1 | – | 24060 | 41190
CG8960 | 1 | – | 60343 | 84833
Brms1 (BRMS1 transcriptional repressor) | 1 | – | 3.94e5 | 2.91e5
CG32198 | 1 | – | 60257 | 70653
